Test results: paper doi:10.1101/2024.08.18.608516
No constants are given. Whether binding was seen depends on the method and setting. In cells and extracts the contact can be indirect. Some binding calls cover weakened binding; strength is not graded here. Sequences can lack the tags named with a protein.

Sequences of proteins named here, by UniProt entry; tags and fusion partners are left off.
UniProt P51617: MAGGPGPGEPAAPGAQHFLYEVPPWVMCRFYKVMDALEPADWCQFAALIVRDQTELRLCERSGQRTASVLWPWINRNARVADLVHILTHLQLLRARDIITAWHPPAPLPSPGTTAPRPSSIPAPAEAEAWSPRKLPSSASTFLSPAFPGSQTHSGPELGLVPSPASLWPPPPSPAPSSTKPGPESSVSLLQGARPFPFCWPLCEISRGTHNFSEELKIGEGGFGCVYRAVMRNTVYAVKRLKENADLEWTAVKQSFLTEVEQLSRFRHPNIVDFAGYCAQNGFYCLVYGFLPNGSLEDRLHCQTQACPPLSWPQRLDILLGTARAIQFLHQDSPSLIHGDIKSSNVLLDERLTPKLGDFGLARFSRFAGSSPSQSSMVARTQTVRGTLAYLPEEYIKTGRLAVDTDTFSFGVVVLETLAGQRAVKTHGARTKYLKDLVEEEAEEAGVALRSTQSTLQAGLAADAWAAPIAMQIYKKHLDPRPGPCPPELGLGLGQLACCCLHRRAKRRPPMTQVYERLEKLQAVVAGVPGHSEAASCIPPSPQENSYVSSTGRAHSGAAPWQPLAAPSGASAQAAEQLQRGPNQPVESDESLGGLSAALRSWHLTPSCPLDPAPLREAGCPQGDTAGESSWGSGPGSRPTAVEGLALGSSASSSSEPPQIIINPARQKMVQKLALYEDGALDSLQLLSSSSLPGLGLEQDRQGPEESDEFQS
UniProt Q8IXJ9: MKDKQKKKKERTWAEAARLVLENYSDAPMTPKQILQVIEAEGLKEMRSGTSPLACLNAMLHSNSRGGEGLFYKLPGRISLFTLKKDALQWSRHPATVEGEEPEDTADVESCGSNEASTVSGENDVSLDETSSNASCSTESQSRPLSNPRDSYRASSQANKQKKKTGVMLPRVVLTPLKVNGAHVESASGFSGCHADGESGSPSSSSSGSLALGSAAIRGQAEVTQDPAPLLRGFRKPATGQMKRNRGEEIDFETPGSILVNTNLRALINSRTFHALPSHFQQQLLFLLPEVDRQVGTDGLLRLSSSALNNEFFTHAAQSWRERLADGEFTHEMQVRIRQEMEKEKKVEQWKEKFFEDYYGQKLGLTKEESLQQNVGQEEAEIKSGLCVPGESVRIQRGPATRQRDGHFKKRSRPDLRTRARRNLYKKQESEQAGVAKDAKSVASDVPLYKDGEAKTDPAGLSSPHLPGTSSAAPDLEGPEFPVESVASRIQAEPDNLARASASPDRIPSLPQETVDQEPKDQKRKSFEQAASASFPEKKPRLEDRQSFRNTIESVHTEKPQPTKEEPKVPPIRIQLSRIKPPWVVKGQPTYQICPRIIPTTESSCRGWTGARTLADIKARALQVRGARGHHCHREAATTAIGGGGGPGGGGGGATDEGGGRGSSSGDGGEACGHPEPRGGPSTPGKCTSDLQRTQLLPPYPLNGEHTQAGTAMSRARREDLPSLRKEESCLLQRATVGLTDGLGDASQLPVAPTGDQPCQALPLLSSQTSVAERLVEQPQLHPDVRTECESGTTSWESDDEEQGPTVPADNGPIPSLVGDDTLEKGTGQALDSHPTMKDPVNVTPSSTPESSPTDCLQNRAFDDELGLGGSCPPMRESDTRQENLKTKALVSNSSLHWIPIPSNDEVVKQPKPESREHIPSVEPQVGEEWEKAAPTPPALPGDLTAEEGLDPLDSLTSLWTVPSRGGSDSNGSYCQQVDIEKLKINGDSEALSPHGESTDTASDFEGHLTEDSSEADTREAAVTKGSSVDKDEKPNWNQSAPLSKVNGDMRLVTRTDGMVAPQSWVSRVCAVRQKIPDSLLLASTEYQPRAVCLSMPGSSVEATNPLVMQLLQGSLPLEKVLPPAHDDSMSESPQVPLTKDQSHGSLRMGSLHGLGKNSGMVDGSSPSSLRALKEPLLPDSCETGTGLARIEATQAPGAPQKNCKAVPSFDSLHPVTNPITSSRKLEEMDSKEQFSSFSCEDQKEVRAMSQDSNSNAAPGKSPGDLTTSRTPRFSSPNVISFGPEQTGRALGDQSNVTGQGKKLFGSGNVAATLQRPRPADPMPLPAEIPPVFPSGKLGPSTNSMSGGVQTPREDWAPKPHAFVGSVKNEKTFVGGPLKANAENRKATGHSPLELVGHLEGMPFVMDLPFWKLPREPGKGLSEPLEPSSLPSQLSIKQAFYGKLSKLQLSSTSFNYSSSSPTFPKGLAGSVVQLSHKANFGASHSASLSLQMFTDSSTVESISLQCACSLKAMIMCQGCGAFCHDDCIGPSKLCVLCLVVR

Key:
FLAG-Tak1 (mouse) = biological target: T1, FLAG-Tak1 (mouse) (UniProt Q62073); assay: co-IP
T1 sequence: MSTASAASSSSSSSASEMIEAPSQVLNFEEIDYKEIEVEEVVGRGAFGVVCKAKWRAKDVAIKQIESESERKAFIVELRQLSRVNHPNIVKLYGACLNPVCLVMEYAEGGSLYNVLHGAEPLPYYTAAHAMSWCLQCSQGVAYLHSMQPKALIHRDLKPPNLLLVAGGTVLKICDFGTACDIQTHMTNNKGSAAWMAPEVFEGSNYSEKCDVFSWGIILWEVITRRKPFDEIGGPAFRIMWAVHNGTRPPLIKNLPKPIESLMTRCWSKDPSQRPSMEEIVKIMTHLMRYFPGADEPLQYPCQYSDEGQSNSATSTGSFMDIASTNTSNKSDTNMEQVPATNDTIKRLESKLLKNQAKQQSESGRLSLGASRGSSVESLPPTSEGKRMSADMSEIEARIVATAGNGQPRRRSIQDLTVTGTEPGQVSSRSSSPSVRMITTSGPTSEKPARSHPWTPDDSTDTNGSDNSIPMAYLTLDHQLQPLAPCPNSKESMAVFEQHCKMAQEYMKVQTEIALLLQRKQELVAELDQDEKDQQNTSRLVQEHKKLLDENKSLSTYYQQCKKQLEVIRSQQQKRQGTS

FLAG-Traf6 (mouse) = biological target: T2, FLAG-Traf6 (mouse) (UniProt P70196); assay: co-IP
T2 sequence: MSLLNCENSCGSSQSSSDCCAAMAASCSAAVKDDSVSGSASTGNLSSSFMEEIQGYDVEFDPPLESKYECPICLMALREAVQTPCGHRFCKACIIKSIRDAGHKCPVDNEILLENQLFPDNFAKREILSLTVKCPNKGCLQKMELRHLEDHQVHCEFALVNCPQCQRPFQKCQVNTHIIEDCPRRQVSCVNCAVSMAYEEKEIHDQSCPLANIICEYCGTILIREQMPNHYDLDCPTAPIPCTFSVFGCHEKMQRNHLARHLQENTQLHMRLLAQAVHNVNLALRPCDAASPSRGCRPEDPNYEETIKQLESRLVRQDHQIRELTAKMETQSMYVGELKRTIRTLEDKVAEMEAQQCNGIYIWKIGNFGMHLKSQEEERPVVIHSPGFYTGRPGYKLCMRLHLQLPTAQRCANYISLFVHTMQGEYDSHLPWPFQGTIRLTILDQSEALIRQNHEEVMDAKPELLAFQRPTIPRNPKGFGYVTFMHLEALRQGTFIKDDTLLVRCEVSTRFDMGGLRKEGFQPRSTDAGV

| binding (FLAG-Tak1 (mouse)) | binding (FLAG-Traf6 (mouse)) | Substance |
| --- | --- | --- |
| binds | – | HA-IRAK1 (from UniProt P51617 1-712) |
| – | binds | Myc-ASXL1-WT (from UniProt Q8IXJ9 1-1541) |
